Experimental data: patent US8765746B2 (Millennium Pharmaceuticals, Inc., priority 2010, dated 2014)
Some of these results come from one statement about several compounds together.

Chains of the proteins cited; added tags and fusions are not shown. Lines headed by an entry give the natural chain unless they say otherwise; changes in a name come on top.
UniProt P42338: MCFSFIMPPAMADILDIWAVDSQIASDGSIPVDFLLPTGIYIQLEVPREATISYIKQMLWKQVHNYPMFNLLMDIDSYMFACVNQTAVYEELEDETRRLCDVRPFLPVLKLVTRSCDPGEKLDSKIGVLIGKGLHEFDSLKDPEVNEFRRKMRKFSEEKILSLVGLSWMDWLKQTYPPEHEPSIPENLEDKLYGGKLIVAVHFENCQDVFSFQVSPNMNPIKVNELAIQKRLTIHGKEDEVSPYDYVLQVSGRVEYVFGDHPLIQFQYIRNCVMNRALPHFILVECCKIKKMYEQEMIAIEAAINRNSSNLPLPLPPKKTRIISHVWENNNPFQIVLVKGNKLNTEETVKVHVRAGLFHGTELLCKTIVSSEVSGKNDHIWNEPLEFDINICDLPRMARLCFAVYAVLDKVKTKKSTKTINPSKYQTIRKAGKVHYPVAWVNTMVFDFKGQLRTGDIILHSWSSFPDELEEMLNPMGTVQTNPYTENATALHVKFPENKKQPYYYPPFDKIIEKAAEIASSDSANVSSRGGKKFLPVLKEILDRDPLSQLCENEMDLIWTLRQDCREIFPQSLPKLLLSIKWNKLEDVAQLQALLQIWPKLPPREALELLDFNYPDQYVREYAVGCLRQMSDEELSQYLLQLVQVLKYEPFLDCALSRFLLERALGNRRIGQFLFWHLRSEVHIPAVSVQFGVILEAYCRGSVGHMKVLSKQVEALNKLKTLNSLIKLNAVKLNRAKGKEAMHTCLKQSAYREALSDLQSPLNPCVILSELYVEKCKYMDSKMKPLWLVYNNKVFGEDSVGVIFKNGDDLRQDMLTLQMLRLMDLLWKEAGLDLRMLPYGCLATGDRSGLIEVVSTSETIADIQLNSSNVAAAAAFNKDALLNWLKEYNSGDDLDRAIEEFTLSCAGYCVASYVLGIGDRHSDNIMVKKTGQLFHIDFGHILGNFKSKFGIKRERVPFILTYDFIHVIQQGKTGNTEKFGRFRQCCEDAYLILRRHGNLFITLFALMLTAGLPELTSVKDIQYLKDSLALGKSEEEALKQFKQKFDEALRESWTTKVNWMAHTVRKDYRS

Molecular target: T1, PI3Kbeta (Homo sapiens, UniProt P42338)
T1 construct: His (N); host or cells: SF9 insect cells (baculovirus)
Assay: Human PI3K beta enzyme assay (HTRF, as for PI3K alpha)
Type: biochemical
Conditions: read-out: IC50 (inhibit PI3Kbeta)
Description: The catalytic subunits of PI3Ks are cloned into either pDEST8(p110 alpha) or pDEST10(p110beta, p110delta, and p110gamma) as N-terminal His tagged fusion proteins using the Gateway system (Invitrogen, catalog#11804-010 for pDEST8 and 11806-015 for pDEST10). The sequences are verified before recombinant protein expression using the Baculovirus Expression System with Gateway® Technology. The accession numbers for the subunits are as follows:
The regulatory subunits of PI3Ks are cloned into pDEST8 as un-tagged protein using the Gateway system (Catalog#11804-010). The sequences are verified before recombinant protein expression using the Baculovirus Expression System with Gateway® Technology. The accession numbers for the subunits are as follows: […]
0.5 uL compounds in DMSO are added to wells of a 384 well microtitre plate (Corning 3575). […] Then 5 ul PI3K stop mix (50 mM Hepes, 5 mM DTT, 150 mM NaCl, 0.01% Tween-20, 15 mM EDTA and 25 nM biotin-PI(3,4,5)P3 (Echelon) is added to quench the reaction followed immediately by addition of 5 ul HTRF detection mix (50 mM Hepes, 5 mM DTT, 150 mM NaCl, 0.01% Tween-20, 40 mM KF, 10 nM GST:GRP-1 PH domain (Millennium Protein Sciences Group), 15 nM Streptavidin-XL (CisBio) and 0.375 nM anti-GST Eu++ antibody (CisBio) at pH 7.00). The plates are then incubated for 1 hour at room temperature with shaking and then read on a BMG PheraStar Plus reader. […]

With O/N=C1\CCC(c2ccc(Cl)cc2)c2cc(-c3ccncc3)sc21 (stereo not shown) [Compound 24] the IC50 was < 100 nM.
